{"source": "patent US20200289450A1", "about": "“METHODS OF REDUCING OR PREVENTING OXIDATIVE MODIFICATION OF MEMBRANE POLYUNSATURATED FATTY ACIDS” (Amarin Pharmaceuticals Ireland Limited, priority 2013, published 2020)", "key": {"[1]": {"experiment": "Glucose- and peroxidation-induced cholesterol domain formation, small angle x-ray diffraction (Example 4)", "format": "physicochemical", "protocol": "The membrane structural effects of glucose and the various compounds examined in this study were measured at 0, 72, and 96 hour intervals. Membrane lipid vesicles were oriented for x-ray diffraction analysis as described by others (e.g., Herbette et al., Biophys. J., vol. 20(2), pages 245-272 (1977)). Briefly, a 100 μL aliquot (containing 250 μg MLV) was aspirated from each sample and transferred to a Lucite® sedimentation cell fitted with an aluminum foil substrate upon which a given sample could be collected by centrifugation. Samples were then loaded into a Sorvall AH-629 swinging bucket rotor (DuPont Corp., Wilmington, Del.) and centrifuged at 35,000 g, 5° C., for 90 min.\nAfter centrifugal orientation, sample supernatants were aspirated and aluminum foil substrates, each supporting a single membrane pellet, were removed from the sedimentation cells. […]\nThe d-space for any given membrane multibilayer is a measurement of the unit cell periodicity of the membrane lipid bilayer (e.g., the distance from the center of one lipid bilayer to the next including surface hydration), and is calculated from Bragg's Law, hλ=2dsinθ, where h is the diffraction order, λ is the wavelength of the x-ray radiation (1.54 Å), d is the membrane lipid bilayer unit cell periodicity, and θ is the Bragg angle equal to one-half the angle between the incident beam and scattered beam. […]"}, "[2]": {"experiment": "Glucose-induced membrane lipid peroxidation (LOOH), CHOD-iodide assay in MLVs (Example 4)", "conditions": "for inhibition of the peroxidative effects of glucose (LOOH formation): vs glucose alone", "protocol": "Vitamin E (α-tocopherol) was also purchased from Sigma-Aldrich and prepared in ethanol at 1.0 mM (ϵ=3.06×10^4 M^−1 cm^−1 at 294 nm) just prior to experimental use. […] All test compounds were further diluted in ethanol or aqueous buffer as needed. Glucose was prepared in saline buffer (0.5 mM HEPES, 154 mM NaCl, pH 7.3) at 11.0 mM (200 mg/dL). CHOD-iodide color reagent (stock) was prepared, with slight modification, as described by from El-Saadani et al. (J. […] Prior to experimental use, the CHOD reagent was activated by adding 24 μM ethylenediaminetetraacetic acid (EDTA), 20 μM butylated hydroxytoluene (BHT), and 0.2% Triton X-100. Multilamellar vesicles (MLVs) were prepared as binary mixtures of DLPC (1.0 or 2.5 mg total phospholipid per sample) and cholesterol at a fixed cholesterol-to-phospholipid (C/P) mole ratio of 0.6:1. Component lipids (in chloroform) were transferred to 13×100 mm borosilicate culture tubes and combined with vehicle (ethanol) or an equal volume of fatty acid, vitamin E, or ATM stock solutions, each adjusted to achieve desired treatment concentrations. Samples were shell-dried under nitrogen gas and placed under vacuum for 1 h to remove residual solvent. […] Lipid suspensions were then vortexed for 3 min at ambient temperature to form MLVs. All MLV samples were subjected to time-dependent autoxidation by incubating at 37° C. in an uncovered, shaking water bath. This method allows lipid peroxidation to occur gradually without requiring the use of exogenous initiators. Small aliquots (5-100 μL) of each sample were removed, immediately following MLV preparation (0 hour) and after exposing samples to oxidative conditions for 72 or 96 hour, and combined with 1.0 mL of activated CHOD-iodide color reagent. Aliquot volume was reduced with each successive time point to ensure that spectrophotometric readings were within the optimal adsorption range. Test samples were covered and incubated in darkness at room temperature for at least 4 hr. Sample absorbances were then measured against a CHOD blank at 365 nm using a Beckman DU-640 spectrophotometer. The CHOD colorimetric assay is based on the oxidation of iodide (I^−) by lipid hydroperoxide (LOOH) to form triiodide (I3^−), the quantity of which is directly proportional to the amount of LOOH present in the lipid sample. The molar absorptivity (ϵ) of I3^− is 2.46×10^4 M^−1 cm^−1 at 365 nm."}, "[3]": {"system": "human LDL (unfractionated)", "experiment": "Copper-initiated oxidation of unfractionated LDL, TBARS (Example 6)", "protocol": "(§1) An experiment to study the antioxidant effect of EPA in small dense LDL (“sdLDL”) was performed. EPA was purchased from Sigma-Aldrich (Saint Louis, Mo.) and solubilized in ethanol to 1 mM under nitrogen atmosphere. Vitamin E (α-tocopherol) was purchased from Sigma-Aldrich and prepared in ethanol at 1.0 mM (ϵ=3.06×10^4 M^−1 cm^−1 at 294 nm) just prior to experimental use. All test compounds were further diluted in ethanol or aqueous buffer as needed.\n(§2) Venous blood was collected from healthy volunteers into vacutainer tubes containing sodium EDTA. Plasma was separated by centrifugation at 3000 g for 25 min at 4° C. and adjusted to a density of 1.020 g/mL with KBr. Triglyceride-rich lipoproteins (TGRL) and LDL fractions were then isolated by sequential centrifugation at 70,000 rpm at 4° C. in a Beckman LE-80 ultracentrifuge using a Beckman 50.4Ti rotor (Beckman Coulter, Inc., Fullerton, Calif.). The TGRL fraction (with a relative density of <1.020) was aspirated from the top of the centrifugate and discarded, leaving an LDL-enriched infranate (with a relative density of 1.020 to 1.063). The plasma LDL fraction was further fractionated into LDL1, LDL2, LDL3, and LDL4 (sdLDL) subfractions with relative densities of 1.020 to 1.035, 1.035 to 1.050, 1.050 to 1.063, and 1.063 to 1.075, respectively. The sdLDL subfraction was retained for additional experimentation. Plasma and lipoprotein fractions were maintained at 4° C. and protected from excessive exposure to light. […] Sample TBARS concentrations were determined spectrophotometrically by measuring sample absorbances against a standard curve derived from the hydrolysis of 1,1,3,3-tetramethoxypropane.\n(§3) Data are presented as mean±S.D. for (N) separate samples or treatment groups. Differences between groups were analyzed using the two-tailed, Student's t-test (for comparisons between only two groups) or ANOVA followed by Dunnett or Student-Newman-Keuls multiple comparisons post-hoc analysis (for comparisons between three or more groups). […]"}, "[4]": {"experiment": "Lipid hydroperoxide (LOOH) formation in cholesterol-enriched model membranes under autoxidation, CHOD-iodide assay (Example 3)", "conditions": "EPA:lipid 1:30"}, "[5]": {"conditions": "cited from earlier work"}, "[6]": {"experiment": "Cholesterol domain formation by small angle x-ray diffraction (Example 3)", "format": "physicochemical", "conditions": "PUFA-enriched model membranes after autoxidation"}, "[7]": {"system": "human sdLDL", "experiment": "Copper-initiated sdLDL oxidation, TBARS (Example 6)", "conditions": "for reduction of TBARS levels compared to vehicle-treated controls: sdLDL, 2 hr after 10 μM CuSO4", "protocol": "as §1, §2, §3"}, "[8]": {"experiment": "LOOH formation in glucose-treated model membranes, EPA versus EA and ETE (Example 5)"}, "[9]": {"conditions": "highly purified EPA, compared to placebo"}}, "note": "At least one compound was matched to its structure with a doubt left.", "data": [{"smiles": "CC/C=C\\C/C=C\\C/C=C\\C/C=C\\C/C=C\\CCCC(=O)OCC", "note": "[EPA, ethyl eicosapentaenoate]", "values": [{"measurement": "effect on membrane structure compared to control samples", "setting": "[1]; 0 hours (start of experiment), glucose 200 mg/dL, 1:30 drug-to-phospholipid mole ratio", "result": "no appreciable effect"}, {"measurement": "inhibition of relative cholesterol domain peak intensity", "setting": "[1]; 96-hour time point, compared to either vehicle or vitamin E treatments", "result": "more than 99%"}, {"measurement": "membrane LOOH formation, dose dependence", "setting": "[2]; 1.0 and 5.0 μM, vs glucose-treated controls (FIG. 2)", "result": "inhibit membrane LOOH formation in a dose-dependent manner"}, {"measurement": "LOOH levels compared to non-glucose-treated controls", "setting": "[2]; 72- and 96-hour time points, 1:30 drug-to-phospholipid mole ratio", "result": "significantly lower"}, {"measurement": "effect on LOOH formation / lipid peroxidation (FIG. 3)", "setting": "[2]; 72- and 96-hour time points, glucose, 1:30 drug-to-phospholipid mole ratio", "result": "significantly inhibited LOOH formation"}, {"measurement": "inhibition of the peroxidative effects of glucose (LOOH formation)", "setting": "[2]; 72 hours, glucose 200 mg/dL, 1:30 drug-to-phospholipid mole ratio", "result": 88, "unit": "%"}, {"measurement": "inhibition of the peroxidative effects of glucose (LOOH formation)", "setting": "[2]; 96 hours, glucose 200 mg/dL, 1:30 drug-to-phospholipid mole ratio", "result": 86, "unit": "%"}, {"measurement": "antioxidant effects (LOOH formation)", "setting": "[2]; each at 1.0 μM, glucose 200 mg/dL, 96 hours", "result": "separate and potent antioxidant effects"}, {"measurement": "reduction in TBARS levels in unfractionated LDL versus sdLDL", "setting": "[3]; at each concentration tested", "result": "several fold lower"}, {"measurement": "LDL oxidation", "setting": "[3]; unfractionated LDL, 1.0 μM to 10.0 μM", "result": "generally inhibit LDL oxidation"}, {"measurement": "reduction of TBARS levels", "setting": "[3]; unfractionated LDL, highest concentration tested (10.0)", "result": 17, "unit": "%"}, {"measurement": "LOOH levels", "setting": "[4]; EPA-treated membranes after autoxidation, C/P 0.6:1, vehicle control 6616±250 μM", "result": "728 ± 30", "unit": "µM"}, {"measurement": "reduction of LOOH levels compared to untreated controls", "setting": "[4]; C/P mole ratio 0.6:1, autoxidation 37° C., 72 hours", "result": "greater than 90%"}, {"measurement": "triglycerides", "setting": "[5]; compared to placebo (Ballantyne et al.; Bays et al.)", "result": "significant reductions"}, {"measurement": "levels of Lp-PLA2", "setting": "[5]; [9]", "result": "significant reductions"}, {"measurement": "levels of hsCRP", "setting": "[5]; [9]", "result": "significant reductions"}, {"measurement": "levels of oxidized LDL", "setting": "[5]; [9]", "result": "significant reductions"}, {"measurement": "CAD-related events", "setting": "[5]; hypercholesterolemic patients receiving statin treatment", "result": "reduced CAD-related events"}, {"measurement": "cholesterol crystalline domain formation", "setting": "[6]", "result": "inhibits cholesterol crystalline domain formation"}, {"measurement": "sdLDL oxidation", "setting": "[7]; 1.0 μM to 10.0 μM", "result": "inhibited sdLDL oxidation"}, {"measurement": "reduction of TBARS levels compared to vehicle-treated controls", "setting": "[7]; 10.0 μM", "result": 57, "unit": "%"}, {"measurement": "reduction of TBARS levels compared to vehicle-treated controls", "setting": "[7]; lowest dose tested (1.0)", "result": 13, "unit": "%"}, {"measurement": "LOOH formation compared to vehicle only, glucose only, glucose and EA, glucose and ETE", "setting": "[8]; FIG. 8", "result": "significantly less LOOH formation"}, {"measurement": "differences in LOOH formation versus vehicle only, glucose only, glucose and EA, glucose and ETE", "setting": "[8]; after 96 hours (FIG. 9)", "result": "even more pronounced"}]}]}
